Laboratory results: PMC8901487
These are yes or no findings as the source states them, for the method shown. Binding seen in cells or lysates may run through a third protein. Some binding calls cover weakened binding; strength is not graded here. For some of these results: Sequences can lack the tags named with a protein.

By UniProt entry, the sequences of proteins in these tests, tags left out.
UniProt Q9UKB1: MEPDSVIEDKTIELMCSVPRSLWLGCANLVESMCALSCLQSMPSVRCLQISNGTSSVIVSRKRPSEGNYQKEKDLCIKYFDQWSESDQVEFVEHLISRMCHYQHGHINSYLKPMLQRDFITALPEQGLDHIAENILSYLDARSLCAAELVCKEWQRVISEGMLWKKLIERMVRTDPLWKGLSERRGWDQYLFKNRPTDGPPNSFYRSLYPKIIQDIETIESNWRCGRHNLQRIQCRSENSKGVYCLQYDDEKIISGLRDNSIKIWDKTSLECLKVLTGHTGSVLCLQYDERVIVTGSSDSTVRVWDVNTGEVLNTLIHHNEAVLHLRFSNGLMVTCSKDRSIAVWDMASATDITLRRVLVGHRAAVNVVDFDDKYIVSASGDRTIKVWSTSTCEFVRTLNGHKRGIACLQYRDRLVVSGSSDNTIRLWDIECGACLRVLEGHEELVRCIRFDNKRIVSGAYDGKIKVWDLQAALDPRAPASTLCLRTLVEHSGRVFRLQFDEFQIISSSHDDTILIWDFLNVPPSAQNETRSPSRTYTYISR

Columns and labels:
[1] = target: FLAG-tagged TRIM67 (wild type, full length) (human) (UniProt Q6ZTA4); assay: co-IP; 293T cells transfected with FLAG-tagged TRIM67 (wild type or mutant), alone or with HA-β-TrCP; lysates precipitated with anti-FLAG affinity gel; blots for FLAG and β-TrCP or HA; for the mutants cells with or without TNFα for 30 min
[2] = target: T1, FLAG-tagged TRIM67 S110/114A (human) (UniProt Q6ZTA4); assay: as above
T1 sequence: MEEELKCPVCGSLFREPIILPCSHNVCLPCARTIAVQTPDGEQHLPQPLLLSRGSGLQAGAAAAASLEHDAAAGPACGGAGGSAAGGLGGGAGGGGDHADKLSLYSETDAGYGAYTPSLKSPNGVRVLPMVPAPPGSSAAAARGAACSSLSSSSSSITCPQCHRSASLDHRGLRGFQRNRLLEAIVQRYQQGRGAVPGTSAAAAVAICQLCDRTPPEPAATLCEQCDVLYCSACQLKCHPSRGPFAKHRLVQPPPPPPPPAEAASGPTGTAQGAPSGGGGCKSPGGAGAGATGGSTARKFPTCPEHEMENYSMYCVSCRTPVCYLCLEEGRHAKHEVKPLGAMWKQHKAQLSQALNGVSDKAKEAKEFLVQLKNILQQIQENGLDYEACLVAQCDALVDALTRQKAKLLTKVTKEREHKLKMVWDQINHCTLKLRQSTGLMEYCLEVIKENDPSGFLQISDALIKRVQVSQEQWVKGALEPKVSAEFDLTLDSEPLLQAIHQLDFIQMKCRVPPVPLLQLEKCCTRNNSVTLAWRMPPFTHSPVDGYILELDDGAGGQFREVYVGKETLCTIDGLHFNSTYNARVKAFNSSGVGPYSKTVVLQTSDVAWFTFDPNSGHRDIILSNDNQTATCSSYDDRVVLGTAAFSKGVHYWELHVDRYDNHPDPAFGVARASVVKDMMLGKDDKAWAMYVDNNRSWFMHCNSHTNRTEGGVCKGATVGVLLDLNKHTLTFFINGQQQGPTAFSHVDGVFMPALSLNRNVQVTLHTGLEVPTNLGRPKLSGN

[3] = target: HA-tagged β-TrCP (wild type, full length) (human (cDNA of 293T cells)) (UniProt Q9UKB1); assay: co-IP; 293T cells co-transfected with full length FLAG-tagged TRIM67 and wild type or truncated HA-β-TrCP; lysates precipitated with anti-HA antibodies and protein A/G plus-gel, five washes; blots for FLAG and HA

Substance | binding [1] | binding [2] | binding [3]
endogenous β-TrCP (from UniProt Q9UKB1 1-542) | binds | no binding | –
HA-tagged β-TrCP (wild type, full length) (from UniProt Q9UKB1 1-542) | binds | – | –
FLAG-tagged TRIM67 (wild type, full length) (from UniProt Q6ZTA4 1-783) | – | – | binds
